PubChem BioAssay AID1224830 – NIAID | 2016
Shown is an unselected part of about 18,000 deposited reagents. Over the whole deposit, about 2,900 (16%) got an active call. 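Calls are made per well; low scores hint the gene aids the LPS response, high scores that it dampens it.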 Unmarked entries are inactive. Repeated entries: four replicate wells of each siRNA pool. No sequences are given here.

Aim: 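Genes whose knock-down alters the TNF-alpha reporter response to LPS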 (primary screen)
Cell system: human THP-1 monocytic leukaemia cells, TNF dual-luciferase reporter clone, PMA-differentiated to macrophage-like cells
Reagents: siRNA pool against human genes, 50 nM
Timing: LPS for 4 h, given about 3 days after siRNA transfection
Conditions: bacterial LPS (TLR4 ligand), 10 ng/ml
Read-out: 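Ratio of firefly to renilla light, scaled to the plate median and expressed as a robust z-score per replicate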
Scale: TNF reporter robust z-score: higher = stronger TNF reporter response to LPS
Call rule: 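a well is active when its z-score exceeds 2.8 or falls below -1.5; control wells carry no call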

target gene,TNF reporter robust z-score
ANKRD36B,-0.55
ANKRD36B,-0.49
ANKRD36B,-0.61
ANKRD36B,-0.39
PBLD,-0.19
PBLD,-0.43
PBLD,0.04
PBLD,0.24
ZNF43,1.15
ZNF43,0.54
ZNF43,0.15
ZNF43,0.86
JMJD4,-0.81
JMJD4,-0.09
JMJD4,-0.89
JMJD4,0.74
MEI1,0.38
MEI1,0.07
MEI1,0.75
MEI1,-0.69
MYPOP,-1.46
MYPOP,-0.67
MYPOP,-0.99
MYPOP,0.6
C12orf42,0.03
C12orf42,0.09
C12orf42,0.94
C12orf42,0.48
KATNAL1,-0.57
KATNAL1,-0.52
KATNAL1,0.07
SCGN,-0.68
SCGN,-1.01
SCGN,-0.03
SCGN,-0.43
RNF149,-0.35
RNF149,0.81
RNF149,0.86
RNF149,-1.46
LLPH,2.87 (active)
LLPH,1.9
LLPH,3.16 (active)
LLPH,1.16
MED19,-1.16
MED19,-0.82
MED19,-0.83
MED19,-0.93
FBXO22,-1.4
FBXO22,2.73
FBXO22,-2.01 (active)
FBXO22,-0.08
ATP5F1D,-0.83
ATP5F1D,0.13
ATP5F1D,1.59
ATP5F1D,0.82
XYLT1,2.99 (active)
XYLT1,-0.19
XYLT1,-0.45
XYLT1,1.76
PRR11,0.5
PRR11,0.33
PRR11,-0.26
PRR11,-0.69
CLCA1,-0.12
CLCA1,0.18
CLCA1,-0.79
TKTL1,-0.64
TKTL1,-0.12
TKTL1,-0.8
TKTL1,-0.48
KCNH6,0.75
KCNH6,-0.66
KCNH6,-0.5
KCNH6,1.81
CFAP100,2.01
CFAP100,1.03
CFAP100,0.62
CFAP100,0.08
ART4,-0.15
ART4,1.47
ART4,-0.8
ART4,-0.64
ERG,-1.51 (active)
ERG,-0.9
ERG,-1.43
ERG,-1.26
XRCC4,2.36
XRCC4,5.8 (active)
XRCC4,1.64
XRCC4,2.01
NIT2,1.43
NIT2,0.77
NIT2,1.02
NIT2,-0.1
TMEM170A,-0.54
TMEM170A,0.37
TMEM170A,0.22
TMEM170A,-0.14
PHF20L1,-0.16
PHF20L1,-1.6 (active)
PHF20L1,0.9
PHF20L1,-0.64
CDKN2AIP,0.14
CDKN2AIP,1.08
CDKN2AIP,1.05
CDKN2AIP,0.97
BCDIN3D,0.03
BCDIN3D,-0.17
BCDIN3D,-0.59
BCDIN3D,1.24

Not a retest: 5 of the entries above.
target gene,TNF reporter robust z-score
MEI1,0.38
MEI1,0.07
MEI1,0.75
MEI1,-0.69
MYPOP,-1.46
